Experimental data: PubChem BioAssay AID1259424 (University of Nebraska Medical Center, 2018)
In all, the deposit lists about 14,000 reagents; below is a random part of them. 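Higher correlation or smaller distance means closer resemblance to KSR1 loss; control wells, including KSR1 knockdowns, recur on many plates.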 Further read-outs or replicates are left out here. No sequences are given here. The record does not give: the time to read-out.

Purpose: 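Find knockdowns that reproduce the expression shifts seen after KSR1 loss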 (primary screen)
Cell system: human HCT116 colon cancer cells
Knock-down reagent: siRNA pool against human genes, 50 nM
Read-out: 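Six signature mRNAs by branched-DNA multiplex assay, scaled to two housekeeping genes and non-targeting median, log2; matched to mean KSR1 knockdown profile by Pearson correlation and euclidean distance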
Scale: mean correlation with KSR1 profile: higher = expression change more like KSR1 knockdown

gene knocked down	mean correlation with KSR1 profile
SAMSN1	-0.365
RPL7	-0.259
MAGEA9	0.67
IFT74	0.217
VRK3	0.584
IGF2R	0.00405
NEU3	0.0959
GZF1	-0.00738
PCGF3	0.462
DAO	0.282
PHKG2	0.463
TPM2	0.877
XYLB	0.237
MFNG	-0.142
CFTR	0.271
ZNF302	-0.396
AHSG	-0.25
UBE2M	-0.729
MAT1A	-0.192
SLC17A9	-0.7
